Results taken from PubChem BioAssay AID1347426 (Functional Genomics Laboratory (NCATS/FGL), 2020).
Out of some 31,000 sequences screened, about 1,400 (4.5%) were called active.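 Rule for the calls: active = median seed-adjusted z-score above 1 or below -1; inactive = the rest.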 The list shows a part of the results.

Assay: Novel Modifiers of Survival Motor Neuron (SMN) Protein: Gene Identification via Genome-wide siRNA Screen;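 note: luminescence tracks full-length SMN protein made from the SMN2 reporter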
Details: HEK293T SMN2-luciferase reporter, siRNA knockdown, 72 h; actives lie on both sides
Summary of the method: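 HEK293T cells stably expressing an SMN2 splicing/cDNA-luciferase reporter were reverse-transfected with a druggable-genome siRNA library and read by luminescence at 72 hours; hits defined by MAD score above 1.0 or below -1.0.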

**Q.** With CAGUUUAGGUCUCAAGGCATT against PPP2R5E as the sequence, how does the median seed-adjusted z-score read?
**A.** Its median seed-adjusted z-score is inactive: 0.421.

**Q.** With GGCUAUUGGUCGUACCUUUTT against CPS1 as the sequence, how does the median seed-adjusted z-score read?
**A.** The median seed-adjusted z-score was inactive: -0.247.

**Q.** Which median seed-adjusted z-score does the source give for AGUACAGCCUGGUCAAGAATT against S100A16 here?
**A.** Its median seed-adjusted z-score is inactive: 0.24.

**Q.** Which median seed-adjusted z-score does the source give for CCAUUGGACCAACACUAUATT against PARP2 here?
**A.** Its median seed-adjusted z-score is inactive: -0.366.

**Q.** With AGUUCUCCGUAUUCGAGCATT against SLC25A41 as the sequence, how does the median seed-adjusted z-score read?
**A.** The median seed-adjusted z-score was inactive: 0.0703.

**Q.** With GGACCUUUGAGGUUGAGGATT against TLL2 as the sequence, how does the median seed-adjusted z-score read?
**A.** The median seed-adjusted z-score was inactive: 0.195.

**Q.** Which median seed-adjusted z-score does the source give for GCUUCAUCUUUGGAUAUCATT against RNF160 here?
**A.** The median seed-adjusted z-score was inactive: -0.163.

**Q.** With GCAUAGAAGGCUUCACGAATT against PLCH1 as the sequence, how does the median seed-adjusted z-score read?
**A.** The median seed-adjusted z-score was inactive: -0.00634.

**Q.** With CAGUAAGAAUUGAUCGUUUTT against YOD1 as the sequence, how does the median seed-adjusted z-score read?
**A.** Its median seed-adjusted z-score is inactive: 0.216.

**Q.** With CCCUAGUGUUCAUCAAGUATT against PSEN2 as the sequence, how does the median seed-adjusted z-score read?
**A.** Its median seed-adjusted z-score is inactive: -0.147.

**Q.** With CGAGCUAUGUGAAUGCAAUTT against HSPG2 as the sequence, how does the median seed-adjusted z-score read?
**A.** The median seed-adjusted z-score was inactive: 0.478.

**Q.** For CGCUGAUGACCGGGCUUUATT against SLC26A1, which median seed-adjusted z-score is on record?
**A.** Its median seed-adjusted z-score is inactive: 0.377.

**Q.** With GACGACUUCUUGAACAGAATT against ZNF207 as the sequence, how does the median seed-adjusted z-score read?
**A.** Its median seed-adjusted z-score is active: -3.1.

**Q.** Which median seed-adjusted z-score does the source give for GAUUGAAUCAAAUGCUGAATT against HTRA4 here?
**A.** The median seed-adjusted z-score was inactive: 0.838.

**Q.** Which median seed-adjusted z-score does the source give for CCGUCACUGAAGUCAAUAATT against CACNA1F here?
**A.** Its median seed-adjusted z-score is inactive: 0.22.

**Q.** With CGACAUAUCUUGUUAACUUTT against HMGN4 as the sequence, how does the median seed-adjusted z-score read?
**A.** The median seed-adjusted z-score was inactive: -0.0471.

**Q.** With GCAUUGUGAAUAUAAUGAATT against ZNF569 as the sequence, how does the median seed-adjusted z-score read?
**A.** The median seed-adjusted z-score was inactive: 0.425.

**Q.** With GCAGAUAAUUGGGAACUGUTT against LMBR1L as the sequence, how does the median seed-adjusted z-score read?
**A.** Its median seed-adjusted z-score is inactive: 0.349.

**Q.** Which median seed-adjusted z-score does the source give for GUUUCAACAUGACAGCUAATT against LIPG here?
**A.** The median seed-adjusted z-score was inactive: -0.00236.

**Q.** With ACAACCUACUUAUCCAUGATT against OSR1 as the sequence, how does the median seed-adjusted z-score read?
**A.** Its median seed-adjusted z-score is inactive: -0.185.

**Q.** With GGAGUAAGAGUGGACUGAATT against PIAS4 as the sequence, how does the median seed-adjusted z-score read?
**A.** The median seed-adjusted z-score was inactive: 0.265.

**Q.** Which median seed-adjusted z-score does the source give for CGAGAAGAGGAUUAAAGGATT against HAND1 here?
**A.** Its median seed-adjusted z-score is inactive: 0.161.

**Q.** For CCAGGUGCAUGUUUGCCUATT against POLG, which median seed-adjusted z-score is on record?
**A.** The median seed-adjusted z-score was inactive: 0.

**Q.** With GAAUUACGGAGGAAUCAUUTT against TCEB3B as the sequence, how does the median seed-adjusted z-score read?
**A.** Its median seed-adjusted z-score is inactive: 0.0434.

**Q.** With GGCUACUAUUAUCUCAAUATT against TPCN1 as the sequence, how does the median seed-adjusted z-score read?
**A.** The median seed-adjusted z-score was inactive: 0.139.

**Q.** With CACUCUCAAUGGGACUGUATT against NR3C1 as the sequence, how does the median seed-adjusted z-score read?
**A.** The median seed-adjusted z-score was inactive: -0.47.

**Q.** With GCAUCGGCCUGAAAGCAGUTT against ZSCAN2 as the sequence, how does the median seed-adjusted z-score read?
**A.** Its median seed-adjusted z-score is inactive: -0.428.

**Q.** For GGACGGAUACAUAAACAAATT against KCNIP1, which median seed-adjusted z-score is on record?
**A.** Its median seed-adjusted z-score is inactive: -0.0767.

**Q.** Which median seed-adjusted z-score does the source give for GGACAAUCUUUACCUCCUATT against VSX2 here?
**A.** Its median seed-adjusted z-score is inactive: -0.333.

**Q.** For GGAACAACCUAGAAGCUUUTT against VRK3, which median seed-adjusted z-score is on record?
**A.** Its median seed-adjusted z-score is inactive: -0.526.

**Q.** Which median seed-adjusted z-score does the source give for CAUUGUUUCGAGAACGUGATT against GNA15 here?
**A.** The median seed-adjusted z-score was inactive: 0.582.

**Q.** With CCCAAGAAAUAUUAACAUUTT against AP3S1 as the sequence, how does the median seed-adjusted z-score read?
**A.** The median seed-adjusted z-score was inactive: 0.787.

**Q.** With GGAUGAAGCCGACCGAAUATT against DDX47 as the sequence, how does the median seed-adjusted z-score read?
**A.** The median seed-adjusted z-score was inactive: -0.398.

**Q.** Which median seed-adjusted z-score does the source give for CCUGGAAACUUGACGGAGATT against SHARPIN here?
**A.** The median seed-adjusted z-score was inactive: -0.00778.

**Q.** Which median seed-adjusted z-score does the source give for CAAGCGAACUCCUCAGUUATT against 14-Sep here?
**A.** The median seed-adjusted z-score was inactive: 0.227.

**Q.** With CCUUUGUAGUUAAUCAGGATT against ZNF577 as the sequence, how does the median seed-adjusted z-score read?
**A.** The median seed-adjusted z-score was inactive: -0.756.

**Q.** Which median seed-adjusted z-score does the source give for CAUUCAUACAAAACCCAAUTT against NLGN4Y here?
**A.** The median seed-adjusted z-score was inactive: 0.317.

**Q.** For GCAAUAUCCUUUGACAACUTT against GABRB3, which median seed-adjusted z-score is on record?
**A.** The median seed-adjusted z-score was inactive: 0.0757.

**Q.** With CACUUACUCAAGACAAGAATT against ZNF429 as the sequence, how does the median seed-adjusted z-score read?
**A.** The median seed-adjusted z-score was inactive: 0.479.

**Q.** For GAAGUAUGAUUAUCGGGAATT against EXT1, which median seed-adjusted z-score is on record?
**A.** Its median seed-adjusted z-score is inactive: 0.489.

**Q.** With GCAUUGCCUCUAUACCAGATT against MALT1 as the sequence, how does the median seed-adjusted z-score read?
**A.** Its median seed-adjusted z-score is inactive: 0.442.

**Q.** Which median seed-adjusted z-score does the source give for CAAUAGCCCUGAAGACUAUTT against EPAS1 here?
**A.** Its median seed-adjusted z-score is inactive: -0.166.

**Q.** For GGAGUUAUGCCUAUCCAAATT against GABRA4, which median seed-adjusted z-score is on record?
**A.** Its median seed-adjusted z-score is inactive: 0.549.

**Q.** With GGAUGGUAGUGAUAGCCCATT against FOXJ3 as the sequence, how does the median seed-adjusted z-score read?
**A.** The median seed-adjusted z-score was inactive: -0.155.

**Q.** For GCUCUGCCCUGUUUGAGAATT against KTI12, which median seed-adjusted z-score is on record?
**A.** The median seed-adjusted z-score was inactive: 0.0814.

**Q.** For CAACUUGUAAGAAACGGUUTT against PRDM10, which median seed-adjusted z-score is on record?
**A.** The median seed-adjusted z-score was inactive: 0.344.

**Q.** With CAAAUCCUGUCUAACAAAATT against MYH7 as the sequence, how does the median seed-adjusted z-score read?
**A.** The median seed-adjusted z-score was inactive: 0.659.

**Q.** With GCUUAUAUGGUGUACAUUUTT against ELOVL6 as the sequence, how does the median seed-adjusted z-score read?
**A.** The median seed-adjusted z-score was inactive: 0.742.

**Q.** Which median seed-adjusted z-score does the source give for GACCUACUGGAGACUAAUATT against TGS1 here?
**A.** The median seed-adjusted z-score was inactive: -0.564.

**Q.** With GCACUCUCCCAGUAUCUAUTT against KLRD1 as the sequence, how does the median seed-adjusted z-score read?
**A.** Its median seed-adjusted z-score is inactive: 0.876.

**Q.** For CACUGAAGCUGUACAACAATT against TSHR, which median seed-adjusted z-score is on record?
**A.** The median seed-adjusted z-score was inactive: 0.851.

**Q.** Which median seed-adjusted z-score does the source give for GGAAAAGAUUUACCUAUAATT against ETV3 here?
**A.** The median seed-adjusted z-score was inactive: -0.039.

**Q.** Which median seed-adjusted z-score does the source give for CAACCUCAGUCUCAGUAAATT against GABRA5 here?
**A.** The median seed-adjusted z-score was inactive: 0.

**Q.** Which median seed-adjusted z-score does the source give for GGUAAGGAAAGAUAGCUCATT against PHF16 here?
**A.** Its median seed-adjusted z-score is inactive: 0.

**Q.** Which median seed-adjusted z-score does the source give for UCGUGUUUCUAUUCUGAUATT against HOXA6 here?
**A.** The median seed-adjusted z-score was inactive: -0.282.

**Q.** With GGUCAUAGGUUUUGGAUCUTT against HIATL1 as the sequence, how does the median seed-adjusted z-score read?
**A.** The median seed-adjusted z-score was inactive: 0.327.

**Q.** Which median seed-adjusted z-score does the source give for GGAUACUCUGAUGAAGAUATT against GNAQ here?
**A.** Its median seed-adjusted z-score is active: -1.23.

**Q.** With GAAGUUCUCUUUACAACCATT against RFX2 as the sequence, how does the median seed-adjusted z-score read?
**A.** The median seed-adjusted z-score was inactive: 0.271.

**Q.** With GCAGCGACCUUUCAGAACATT against SALL1 as the sequence, how does the median seed-adjusted z-score read?
**A.** The median seed-adjusted z-score was inactive: -0.526.

**Q.** For GAAGGAUUCUGGUCUGAAATT against ACSL1, which median seed-adjusted z-score is on record?
**A.** Its median seed-adjusted z-score is inactive: 0.264.

**Q.** With CAAGGUAUCAUUAACCCAATT against TFIP11 as the sequence, how does the median seed-adjusted z-score read?
**A.** Its median seed-adjusted z-score is inactive: -0.0562.

**Q.** With CGUUGAUUAUGCAAGGCAATT against GIT2 as the sequence, how does the median seed-adjusted z-score read?
**A.** Its median seed-adjusted z-score is inactive: 0.338.

**Q.** For GUGCGUUUCUCAUACCGUATT against SLC6A6, which median seed-adjusted z-score is on record?
**A.** The median seed-adjusted z-score was inactive: 0.0448.

**Q.** With GCAUCAUACUCUUCCUGUUTT against ALOX5AP as the sequence, how does the median seed-adjusted z-score read?
**A.** The median seed-adjusted z-score was inactive: -0.0169.

**Q.** With GAACAGUCCCUGGUUCCCATT against ECSIT as the sequence, how does the median seed-adjusted z-score read?
**A.** The median seed-adjusted z-score was inactive: -0.116.

**Q.** For CUAUUGUUAAGACAGAUUATT against AGK, which median seed-adjusted z-score is on record?
**A.** Its median seed-adjusted z-score is inactive: -0.312.

**Q.** Which median seed-adjusted z-score does the source give for GCCUUUAACGGACUUGCAATT against ZNF536 here?
**A.** The median seed-adjusted z-score was inactive: -0.295.

**Q.** With GGUCAAUUCUUCUUGGACATT against ALG11 as the sequence, how does the median seed-adjusted z-score read?
**A.** Its median seed-adjusted z-score is inactive: 0.183.
